Values quoted from earlier work in patent US20230405145A1, “IRON OXIDE NANOPARTICLE FOR SUPPRESSING DRUG-RESISTANT GENE FOR THE TREATMENT OF GLIOBLASTOMA” (University of Washington, priority 2020, published 2023).
At least one compound was matched to its structure with a doubt left.

System: GBM
Details: TMZ with radiotherapy, GBM patients; cited from earlier work

SMILES: Cn1nnc2c(C(N)=O)ncn2c1=O [TMZ, temozolomide]
- extension of median survival: 2.5 months
